No constants are given. Whether binding was seen depends on the method and setting. Binding seen in cells or lysates may run through a third protein. Binding can be weak; no strength is given.

Protein sequences, listed by entry. Tags and fused reporters are not part of them. Lines headed by an entry give the natural chain unless they say otherwise; changes in a name come on top.
UniProt Q9JJ00: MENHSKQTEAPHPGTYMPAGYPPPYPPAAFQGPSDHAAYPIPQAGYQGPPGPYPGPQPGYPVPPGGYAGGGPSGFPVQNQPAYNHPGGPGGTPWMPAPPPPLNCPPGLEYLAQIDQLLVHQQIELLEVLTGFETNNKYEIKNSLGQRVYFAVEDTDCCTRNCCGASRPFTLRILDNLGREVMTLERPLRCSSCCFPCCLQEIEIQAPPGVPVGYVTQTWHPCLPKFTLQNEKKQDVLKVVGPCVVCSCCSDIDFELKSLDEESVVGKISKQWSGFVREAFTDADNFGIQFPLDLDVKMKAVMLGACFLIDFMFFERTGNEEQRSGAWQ
UniProt Q8CFI0: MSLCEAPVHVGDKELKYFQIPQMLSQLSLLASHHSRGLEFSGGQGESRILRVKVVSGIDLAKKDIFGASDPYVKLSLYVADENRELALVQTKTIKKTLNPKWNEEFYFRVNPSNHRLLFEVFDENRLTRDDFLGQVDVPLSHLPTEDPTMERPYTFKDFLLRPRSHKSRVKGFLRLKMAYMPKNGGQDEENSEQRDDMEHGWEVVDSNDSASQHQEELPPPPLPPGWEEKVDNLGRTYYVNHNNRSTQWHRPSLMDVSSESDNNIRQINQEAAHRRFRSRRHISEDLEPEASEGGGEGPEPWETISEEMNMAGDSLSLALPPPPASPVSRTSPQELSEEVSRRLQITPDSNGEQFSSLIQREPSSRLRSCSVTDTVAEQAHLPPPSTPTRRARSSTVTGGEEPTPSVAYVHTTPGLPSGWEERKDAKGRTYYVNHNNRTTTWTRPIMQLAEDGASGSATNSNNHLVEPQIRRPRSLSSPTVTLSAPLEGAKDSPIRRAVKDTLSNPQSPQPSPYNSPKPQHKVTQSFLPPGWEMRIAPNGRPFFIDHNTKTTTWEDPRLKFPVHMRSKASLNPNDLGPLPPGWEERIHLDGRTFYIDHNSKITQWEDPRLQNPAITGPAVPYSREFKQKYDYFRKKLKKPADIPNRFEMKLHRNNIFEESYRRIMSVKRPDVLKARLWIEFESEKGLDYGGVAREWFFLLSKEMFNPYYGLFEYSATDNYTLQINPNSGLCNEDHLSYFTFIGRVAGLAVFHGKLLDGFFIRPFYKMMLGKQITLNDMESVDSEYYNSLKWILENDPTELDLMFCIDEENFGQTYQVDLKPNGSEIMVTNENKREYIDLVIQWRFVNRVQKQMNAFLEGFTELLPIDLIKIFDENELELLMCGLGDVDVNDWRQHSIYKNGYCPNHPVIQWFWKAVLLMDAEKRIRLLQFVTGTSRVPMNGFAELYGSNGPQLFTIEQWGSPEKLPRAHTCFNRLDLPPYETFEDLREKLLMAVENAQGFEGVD

The target of the assay is PY mutant PLSCR1 (PLSCR1-GFP-PY) (mouse) (UniProt Q9JJ00). The experiment in a line: co-IP; HEK293T co-transfected with NEDD4-2-myc and PLSCR1-GFP (WT or PY mutant); MG132 and CQ for 4 h; immunoprecipitation with anti-GFP, anti-myc or anti-Nedd4-2 on protein G-Sepharose; immunoblot. (In general: In western blotting, separated proteins are transferred to a membrane and probed.)

“NEDD4-2-myc (WT) (from UniProt Q8CFI0 1-1004) (enzyme)”: the binding result is recorded as “binds”.

The values are drawn from publication PMC12368045.
